Data as given in patent US6130053A, “Method for selecting compounds for inhibition of neoplastic lesions” (priority 1999, dated 2000).
The name of at least one read-out is uncertain.

System: β-catenin in SW480 cells
Assay: β-catenin level by Western blot in SW480 cells
Type: cell-based, human
Conditions: 200-600 μM, 48 hours, vs control
Protocol: SW480 cells were treated with exisulind or vehicle (0.1% DMSO) for 48 hours. 50 μg supernatant of each cell lysates were loaded to 10% SDS-gel and blotted to nitrocellulose membrane, and the membrane was probed with rabbit-anti-β-catenin and rabbit anti-PKG antibodies.
This observation was made by culturing SW480 cells with either 200-600 μM exisulind or vehicle (0.1% DMSO). The cells are harvested 48 hours post treatment and processed for immunoblotting. Immuno-reactive protein can be detected by western blot. […] Thus, using PKG activity in neoplastia as a screening tool to select compounds as anti-neoplastics is useful.

CC1=C(CC(=O)O)c2cc(F)ccc2/C1=C\c1ccc(S(C)(=O)=O)cc1 [Exisulind, 5-fluoro-2-methyl-1-(p-methylsulfonylbenzylidene)-3-indenylacetic acid]
reduction of β-catenin expression: 50%
